Source: PubChem BioAssay AID1259405 (NCATS, 2018)

Purpose: 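Mouse-designed siRNAs used to find CHO productivity engineering targets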 (primary screen)
Cell system: Chinese hamster CHO-K1 ovary cells with stable secreted eGFP expression
Reagents: single siRNA against mouse genes, 0.8 pmol siRNA per well (2 µl of 400 nM stock)
Time to read-out: 3 days
Detection: 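Per-well intracellular GFP measured by laser scanning cytometry, plus viability from ATP luminescence, each relative to plate median of non-targeting control wells, in %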
Scale: GFP, % of control: higher = more GFP per well, higher productivity; viability (ATP), % of control: higher = more viable cells (more ATP)
Call rule: 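a knock-down is called active if GFP reaches 120% or more of non-targeting control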
In all, the deposit lists about 50,000 reagents; below is an unselected part. About 4,000 of them (8%) were called active. 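Mouse siRNA library applied to hamster cells; one well for each siRNA.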 The numbers tell different reagents against one gene apart.

no.	gene	reagent	GFP, % of control	viability (ATP), % of control	outcome
1	Thap4 (THAP domain containing 4)	1	27.6	63	inactive
2	Thap4 (THAP domain containing 4)	2	80.3	89.2	inactive
3	Thap4 (THAP domain containing 4)	3	130	186	active
4	Or6k8 (olfactory receptor family 6 subfamily K member 8)	1	51.4	29.7	inactive
5	Or6k8 (olfactory receptor family 6 subfamily K member 8)	2	106	119	inactive
6	Or6k8 (olfactory receptor family 6 subfamily K member 8)	3	47	25	inactive
7	Fndc10 (fibronectin type III domain containing 10)	1	45.1	54.3	inactive
8	Fndc10 (fibronectin type III domain containing 10)	2	72.7	88.9	inactive
9	Fndc10 (fibronectin type III domain containing 10)	3	75.7	101	inactive
10	Fam114a1 (family with sequence similarity 114, member A1)	1	104	77.6	inactive
11	Fam114a1 (family with sequence similarity 114, member A1)	2	77.6	80.4	inactive
12	Fam114a1 (family with sequence similarity 114, member A1)	3	103	92.9	inactive
13	Alg5 (ALG5 dolichyl-phosphate beta-glucosyltransferase)	1	72	98.3	inactive
14	Alg5 (ALG5 dolichyl-phosphate beta-glucosyltransferase)	2	38.4	95.2	inactive
15	Alg5 (ALG5 dolichyl-phosphate beta-glucosyltransferase)	3	80.6	129	inactive
16	Wnt2b (wingless-type MMTV integration siteWNT)	1	75.7	85	inactive
17	Wnt2b (wingless-type MMTV integration siteWNT)	2	36.2	50.3	inactive
18	Wnt2b (wingless-type MMTV integration siteWNT)	3	80.1	57.1	inactive
19	Gabrr2 (gamma-aminobutyric acid type A receptor subunit rho 2)	1	91.2	65.5	inactive
20	Gabrr2 (gamma-aminobutyric acid type A receptor subunit rho 2)	2	56.4	25.8	inactive
21	Gabrr2 (gamma-aminobutyric acid type A receptor subunit rho 2)	3	74.3	41.1	inactive
22	Ankfy1 (ankyrin repeat and FYVE domain containing 1)	1	84.7	83.6	inactive
23	Ankfy1 (ankyrin repeat and FYVE domain containing 1)	2	88.8	80.9	inactive
24	Ankfy1 (ankyrin repeat and FYVE domain containing 1)	3	81.9	80.1	inactive

The list goes on; the last 5 above are carried over.
no.	gene	reagent	GFP, % of control	viability (ATP), % of control	outcome
20	Gabrr2 (gamma-aminobutyric acid type A receptor subunit rho 2)	2	56.4	25.8	inactive
21	Gabrr2 (gamma-aminobutyric acid type A receptor subunit rho 2)	3	74.3	41.1	inactive
22	Ankfy1 (ankyrin repeat and FYVE domain containing 1)	1	84.7	83.6	inactive
23	Ankfy1 (ankyrin repeat and FYVE domain containing 1)	2	88.8	80.9	inactive
24	Ankfy1 (ankyrin repeat and FYVE domain containing 1)	3	81.9	80.1	inactive
25	Dffa (DNA fragmentation factor, alpha subunit)	1	87.2	121	inactive
26	Dffa (DNA fragmentation factor, alpha subunit)	2	191	150	active
27	Adcy1 (adenylate cyclase 1)	1	77	62.7	inactive
28	Adcy1 (adenylate cyclase 1)	2	77.8	78.9	inactive
29	Adcy1 (adenylate cyclase 1)	3	72.8	96.6	inactive
30	Disc1 (disrupted in schizophrenia 1)	1	53.7	81.4	inactive
31	Disc1 (disrupted in schizophrenia 1)	2	11.9	58.2	inactive
32	Disc1 (disrupted in schizophrenia 1)	3	48.1	42.9	inactive
33	Oog4 (oogenesin 4)	1	55	35.6	inactive
34	Oog4 (oogenesin 4)	2	72.9	50.6	inactive
35	Oog4 (oogenesin 4)	3	98.9	85.8	inactive
36	Irak1 (interleukin-1 receptor-associated kinase 1)	1	139	84.7	active
37	Irak1 (interleukin-1 receptor-associated kinase 1)	2	72.5	66.1	inactive
38	Irak1 (interleukin-1 receptor-associated kinase 1)	3	108	80.1	inactive
39	Liph (lipase H)	1	77.1	98	inactive
40	Liph (lipase H)	2	94.5	99.3	inactive
41	Liph (lipase H)	3	67.2	75.6	inactive
42	Ddx42 (DEAD box helicase 42)	1	73.9	73.2	inactive
43	Ddx42 (DEAD box helicase 42)	2	93.1	67.5	inactive
44	Ddx42 (DEAD box helicase 42)	3	89.4	87.2	inactive
45	Ilkap	1	92.3	96.9	inactive
46	Ilkap	2	106	88.4	inactive
47	Ilkap	3	63.6	72.9	inactive
48	Ldoc1 (regulator of NFKB signaling)	1	52.1	64.9	inactive
49	Ldoc1 (regulator of NFKB signaling)	2	32.9	71	inactive
50	Ldoc1 (regulator of NFKB signaling)	3	116	91.2	inactive
51	Elp5 (elongator acetyltransferase complex subunit 5)	1	93.2	76.2	inactive
52	Elp5 (elongator acetyltransferase complex subunit 5)	2	5.31	9.17	inactive
53	Elp5 (elongator acetyltransferase complex subunit 5)	3	47.9	40.1	inactive
54	Bcar1 (breast cancer anti-estrogen resistance 1)	1	89.1	109	inactive
55	Bcar1 (breast cancer anti-estrogen resistance 1)	2	74.3	102	inactive
56	Bcar1 (breast cancer anti-estrogen resistance 1)	3	103	88.3	inactive
57	Cuedc2 (CUE domain containing 2)	1	67.4	93.4	inactive
58	Cuedc2 (CUE domain containing 2)	2	62.4	89.9	inactive
59	Cuedc2 (CUE domain containing 2)	3	67.1	93.3	inactive
